The values that follow come from PubChem BioAssay AID1508600 (Functional Genomics Laboratory (NCATS/FGL), 2020).

In all, about 53,000 sequences went through this assay and about 3,700 (7%) were called active.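 How the source made its calls: active means gene knockdowns whose robust z-score for IL-1 alpha signal is at least 2 or at most -2, so actives lie on both sides; inactive means the rest.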 The list shows a part of the results.

A short description of this test: Components of the Cytosolic LPS Sensing Pathway: Gene Identification via Genome-wide siRNA Screen.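 Further: robust z of the log signal after scaling to non-targeting control siRNA wells of the plate.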 The note with it: RAW264.7 macrophages, IL-1a HTRF, actives lie on both sides, screened at 100 nM (by protocol), cells primed 5 h with Pam3CSK4 first. An outline of the steps:
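Cells (RAW264.7, 1×10^4 per well) were transfected with siRNA at 100 nM and cultured 48h at 37 degrees C. Pam3CSK4 was added for 5 hours; LipidA transfection followed for 24 hour. IL-1a was then measured by HTRF.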
With GCUAUGAAGAAAAAUCGGATT against Mettl21e, the z-score is inactive: 0.362.
In the case of GGGUUUUUUCAACCAGAAUTT against Hyal2, the z-score was inactive: -1.02.
In the case of GGCUAUCAUGUUACCUAGGTT against Olfr25, the z-score was inactive: 0.385.
Take GGUCAUUGUCAGUACCGGATT against Pomk: the z-score was inactive: 0.943.
As to CCUGUGCACUGAAAGCACGTT against Mogat2, the z-score was inactive: -0.233.
Turning to GGUGGAAAAUGGUUGGUUUTT against Mfap3, the z-score is inactive: -0.493.
For CGAGCGACUAGAAAAUGACTT against Nprl2, the z-score was inactive: -0.568.
As for GCCCACGUACAGAAAACAGTT against Aox2, the figure is inactive: -1.72; as for GGAGUGGUACACAGACAUGTT against Srd5a2, inactive: -0.113; as for CCAUUUCUCACCAGUGAUCTT against Gm5535, active: -2.61.
As to GGCACCUAAAUUCUUGAAUTT against Hspb6, the z-score is inactive: -0.356.
In the case of GCGAAAUUCUAUCCAGCCATT against Trp53, the z-score was inactive: 0.632.
Take GCUAACCAUGUAAAAGCUATT against Pde3a: the z-score was inactive: -0.976.
As for GCUCCAUUGGGUGUGAACATT against Atg4d, the figure is inactive: 0.0237; as for GCAGGUACUAUGGUUAAGCTT against Dnd1, inactive: -0.263; as for GGAAACACCAAGAUUCCAGTT against Sprr3, inactive: -0.445.
On to CCUGAUCAACAAACCGGAUTT against Rfxank, for which the z-score was inactive: 1.29.
Then GGCGAGAAGAUCCUUAUCCTT against Wdr3, with inactive: -1.24.
As for GCGGACCAUCGAGAAGUUUTT against Eef1a2, the figure is inactive: -0.933.
Then CCAUUAUGGACAAUAAGAGTT against Rnf8, with inactive: 0.396; and GGAAGUCAUGAAGAACAGATT against Nup50, with inactive: 0.802.
Consider GGUCAACAUCGAUGAGCUATT against Ppp1r14a, for which the z-score was inactive: 0.17.
Turning to GCGAUUACUGGAGAUAGAGTT against Zrsr1, the z-score was inactive: -0.245.
For the sequence GGACAAAGACAAAAAGGAUTT against Pole3, the z-score was inactive: -1.8.
Turning to GGGCAGCUUUGAAACACUCTT against Clspn, the z-score is inactive: -0.663.
Regarding GGUUACUUUGGGAAAGUUGTT against Rpl27a, the z-score was inactive: 1.56.
Take CCCACUUGACUGAAAAGAUTT against Nmnat2: the z-score was inactive: -0.388.
Take GGCAAUUGUCCACAAACUCTT against Smyd5: the z-score is inactive: 0.399.
On to GGAAAGAAACCGUAUAAAUTT against Zfp93, for which the z-score is inactive: 0.116.
Turning to GGAAUCAGAGAAAUUGUAATT against Ctsq, the z-score is inactive: -1.29.
As to GGCAUGAUAAGCUUCGAUGTT against Pmm1, the z-score was inactive: -0.51.
For the sequence GCUUCCUGUUCGACGUAUCTT against Gdf7, the z-score is inactive: 0.233.
Take GAGAAUCCUCACAUAAUCATT against Tnk1: the z-score was inactive: 0.813.
On to GGUACACCUGGUAGAAUUGTT against Ppp1r16a, for which the z-score is inactive: 0.497.
As for GGACGACUUUGAUUUCAACTT against Stat3, the z-score is inactive: 1.4.
Then GGUUAACAUUUUCAGUCAUTT against Itga2, with inactive: -0.986; and CCACCAGACUCAUAUUAACTT against LOC433501, with inactive: -1.38.
As to GGUGGCCAAGGAAAAUGGUTT against Pcx, the z-score is inactive: -0.477.
GGCUUCUUUUUGUUCUCUGTT against Apex2: the z-score is inactive: -1.85.
Consider GCAAAGCUGAUGGACUCAATT against Zbed5, for which the z-score was inactive: -0.179.
As for CCUGCACUGGGAAAUAUGGTT against Polr2g, the figure is inactive: -1.76; as for GGCCAGAUCUUCUAAAUUCTT against Lect2, inactive: 0.552.
As for GGCCAAGCUGAUCAAUAUATT against Oprd1, the z-score is inactive: -0.0338.
Then GCUCUUAGAUACAGUUUUATT against Pds5b, with inactive: 0.598.
Take GCGUGGACGAAUGGAAACATT against Mapk13: the z-score is inactive: -0.942.
As for GGUCGACAUUGAAGCUAUUTT against Ralyl, the z-score was inactive: -0.517.
On to GGACAUCACCAUGACAGACTT against Pnmt, for which the z-score was inactive: -1.61.
On to GGAGAGCGGGUCAUCACAUTT against Efna4, for which the z-score was inactive: 1.52.
As for “GCAAUACUUUGCAUGCAUUTT against 9530002B09Rik”, the figure is inactive: 0.16.
As to GGCAUGAAUCAGUCUAUGGTT against Olfr1308, the z-score is inactive: 0.656.
As for GCCAAGUAAAACCAAAUGUTT against Ldlrad4, the figure is inactive: -1.85.
Consider GGAUAGGUGGCUGAUAGUGTT against Hsd3b4, for which the z-score was inactive: -0.0303.
For the sequence GGAGCUGGAGACUAAAGCUTT against Slc29a2, the z-score is inactive: -0.478.
As for GGAACUUGAAAUCGUAAUUTT against Magohb, the figure is inactive: -0.121; as for GGCUACGAAACCAGAAGAUTT against Shd, inactive: -1.03.
Consider GGAGGUUGAGGCUUCUAAGTT against Pacsin3, for which the z-score was inactive: 1.2.
On to GCUCACAGAAACGACCCAUTT against Bicd1, for which the z-score was inactive: -0.686.
Regarding GGCAUUUAUUUACCCUAGATT against Pcdha11, the z-score is inactive: 0.596.
Take GGAGCAGACGAUAUGCAGATT against Copb2: the z-score was inactive: 0.559.
For the sequence GGAACUGCCCAUUCAUCUATT against Pramel6, the z-score is inactive: -0.464.
Turning to GGAUAUCAACAGAUACAUCTT against Serpina12, the z-score is inactive: -0.493.
As to GGUUAUUAUAAUGAUCUGGTT against Wdr33, the z-score was inactive: 0.836.
Take CCUUAUAAGAAAGAUAGACTT against Nhlrc2: the z-score is inactive: -0.591.
As to GGUUCCAACCGAUAAGUAUTT against Fh1, the z-score is inactive: 1.1.
With CCUGGUAACCUGCUAAAAGTT against Gm5124, the z-score was inactive: 1.24.
With GGCUUGUCCACUGAACCUUTT against Nop2, the z-score was inactive: 0.0118.
Take GCAAAAUCUAGGGAUAAGATT against Trdv2-2: the z-score was inactive: 0.259.
For the sequence GCAGUCUCACCUGAACAGATT against Eppin, the z-score was inactive: 0.43.
Then CCAUGGACCAAAUGAAGUUTT against Cd44, with active: 2.59; and GGCGAUGAAGUCUACGUGATT against C1ql2, with inactive: 0.344.
As to GGCGGUCAAGUGAGGUUCUTT against Hhex, the z-score is active: 3.62.
As for GGAUGUUGCUGUCGAUACATT against Kcnq3, the figure is inactive: 1.82; as for GUGCCAGUUGUGACAAUAUTT against Gm5128, inactive: 0.251.
Take CCUAAGUCCAAUCACACCUTT against Olfr1076: the z-score was inactive: 0.525.
With CCCAAACUGAAUUAAGCAGTT against Spata7, the z-score is inactive: -0.515.
Consider GGAUUCUUCAUUUCUAGUGTT against C1qtnf6, for which the z-score was inactive: 0.231.
For GGAGGUGAUCUGUACCGGATT against Nek4, the z-score was inactive: -0.603.
As for GCUGGAAGCAUUUGUUUUUTT against Uap1, the z-score was active: 2.19.
As for GGCCGUUGUAUGAAGAGUATT against Ace2, the figure is inactive: -0.614; as for GGAGAUGCUGGACUGCUUUTT against Htr1b, inactive: 0.195.
Consider GGCAACUUUUAACUAACUUTT against Gbp2, for which the z-score was inactive: -0.626.
For the sequence GGAGAAGGUUCACUCUGAUTT against Traf1, the z-score was inactive: -0.666.
Then GCCGAGUGAAUGAAAGGACTT against Ppp1r32, with inactive: -0.758.
For the sequence GCUCGACAGCUACAGAGUUTT against Kdm1a, the z-score is inactive: -0.0798.
Take GGAUAUUCAGCACUGGGAATT against Rrm2: the z-score was inactive: -0.525.
With GGCCUUAGAUAGUUACAUATT against Gm4759, the z-score is inactive: -0.173.
As for “GGCCUGGAUCAUUGUGGUGTT against 2810025M15Rik”, the figure is inactive: 1.35; as for CCAAUUGCUAAUCCUUUGUTT against Pin1, inactive: 1.52.
For the sequence GGUAUCAUGCUGAGAGAGATT against B4galt6, the z-score is inactive: -0.461.
Turning to GGAGUGGAGUUCAACAUUGTT against Atox1, the z-score is inactive: 0.0646.
Turning to GUUUGCUGCUAUCUCUUUUTT against Atp6v0e, the z-score was inactive: 1.6.
GGCAUUUUCCACAUGCGGCTT against Olfr139: the z-score was inactive: -0.496.
Regarding GGUGCAAGAACACUAUGAUTT against U2af1l4, the z-score is inactive: 0.0528.
Then GGUUUUAGUAUAAAGGCAGTT against Arl15, with inactive: -1.55; and GGACCAUCCCUGUUUUAUATT against Ifrd2, with inactive: -0.0712.
As for GGAGAUUAUGAAAGAUUUGTT against Pank3, the figure is inactive: 0.197; as for UGGCCUUUGCCCUACAUUUTT against Orai3, inactive: 0.266.
For GGACAUCAGUUGUCCUAGCTT against Ano6, the z-score was inactive: -0.285.
Take GGAGUCCUCUAUGUGCAGATT against Pla2g4b: the z-score was inactive: -0.68.
In the case of GCAUGCUACGAUCUGGACUTT against AI661453, the z-score was inactive: 0.714.
For GGAGCUCCUACCAAGACUUTT against Klhl38, the z-score is inactive: 1.07.
As for GCACGGAUGCAGUGAAUAGTT against Akirin2, the figure is inactive: -0.108; as for GCUUUGGAUAGUAGACAGCTT against BC055324, inactive: 0.199.
As for GGACAUCACCUGUCAAAGUTT against Zar1, the figure is inactive: 0.0246; as for GCCUGGUUUAACAAUCCUCTT against Zmat4, inactive: -1.4.
In the case of GGUUGUGACUUCACGUUCCTT against Sult1a1, the z-score was inactive: -0.477.
For the sequence CCUACUCCUUCUUGAUUUATT against Lpl, the z-score was inactive: 1.31.
